# Reference: PubChem BioAssay AID624297 (National Center for Advancing Translational Sciences (NCATS), 2012)
# In all, about 340,000 compounds went through this assay and about 6,200 (1.8%) were called active. The inconclusive results got no clear call from the source; some entries with a clear call stand among them for comparison. Calls come from the whole dose curve; as a rule, active = well fitted activation curve with a large enough effect; inconclusive = small, poorly fitted or top-dose-only effect; inactive = no such curve, though single readings can be large or run the other way. Potencies of inconclusive entries are doubtful fits and often do not repeat.
# Assay: A quantitative high throughput screen for small molecules that induce DNA re-replication in SW480 colon adenocarcinoma cells. For re-replication activation: % of control where 0% means no effect. Note: nearly all actives have a fitted effect of over 55% in size.
# Details: Hoechst DNA content imaging, 48 h; re-replication activation: at 46.1 µM (top of the series) unless noted
# Summary of the method: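 Image-based read-out: total Hoechst fluorescence of nuclei (405 nm excitation, 500-530 nm emission), with hits raising the fraction of high-intensity nuclei. SW480 colon cells incubated 48 hr with compounds at 37 C.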
# Potency is the fitted concentration of half-maximal effect.
Structure (SMILES),Potency,re-replication activation
O=C(NC1CCCCC1)C1CC(=O)N(CCc2ccc(F)cc2)C1 (stereo not drawn),inactive,
Cc1nc2ncnn2c(N2CCC(C(=O)NCC3CCCO3)CC2)c1Cc1ccccc1 (stereo not drawn),inactive,
CC(C)Cn1nc(C(=O)NCc2ccccc2CN2CCCC2)c2ccccc2c1=O,inactive,
O=[N+]([O-])c1ccc(COc2ccc(CN3CCCCC3)cc2)cc1,"inconclusive: 2.59 µM [activator, partial curve]",
CCOc1ccc2nc(N(CCCN(C)C)C(=O)c3ccc(C(=O)c4ccccc4)cc3)sc2c1,"inconclusive: 23.1 µM [activator, single point]",
O=S(=O)(c1ccc(Br)cc1)N1CCN(c2cc(-c3ccccc3)nc3ncnn23)CC1,inactive,
CCOc1cc(/C=N\Nc2ccc([N+](=O)[O-])cc2)ccc1OCC(=O)Nc1ccc(C)c(C)c1,"inconclusive: 18.4 µM [activator, single point]",
O=S(=O)(c1ccc(Br)cc1)c1nc(-c2ccccc2)oc1NCc1cccnc1,"inconclusive: 29.1 µM [activator, single point]",
CCOC(=O)N1CCN(C(=O)C2CCN(C(=O)c3ccccc3C)CC2)CC1,"inconclusive: 20.6 µM [activator, single point]",
CCn1c(/C=C/c2ccc(O)cc2)nc2ccccc2c1=O,,inactive: -6.83% [at 9.22 µM]
CCc1ccccc1NC(=O)/C(C#N)=C/c1ccc(Sc2ccccc2)o1,"inconclusive: 29.1 µM [activator, single point]",
O=C(c1cn(Cc2ccccc2)nc1-c1ccccc1)N1CCN(c2ccccn2)CC1,"inconclusive: 18.4 µM [activator, single point]",
COc1ccc(C(=O)NN=C2CCCC2)cc1OC,inactive,
C=C(C)CSc1cc(C)c(C#N)c2nc3ccccc3n12,"inconclusive: 23.1 µM [activator, single point]",
CCN(CC(=O)NC(c1ccccc1)c1ccccc1)Cc1nc2ccccc2c(=O)[nH]1,,inactive: -1.91% [at 9.22 µM]
CCOc1ccc(C(=O)N[C@H](C(=O)Nc2cccc(S(=O)(=O)N3CCCCC3)c2)C(C)C)cc1,"inconclusive: 12.6 µM [activator, single point]",
COc1ccc(NS(=O)(=O)c2ccc(-n3nnc4ccccc43)c([N+](=O)[O-])c2)cc1,inactive,
N#C/C(=C/c1ccccc1OCc1ccc(F)cc1)c1ccc(C(=O)O)cc1,"inconclusive: 0.103 µM [activator, full curve, poor fit]",
C#CCOc1ccc(Br)cc1/C=N/O,inactive,
Cc1cc(SCC(=O)NN)c2cc(Br)ccc2n1,"inconclusive: 29.1 µM [activator, single point]",
O=C(/C=C/c1ccco1)Nc1ccc(Oc2ccc(Cl)cc2)cc1,"inconclusive: 23.1 µM [activator, single point]",
O=C(Nc1cc(S(=O)(=O)N2CCOCC2)ccc1N1CCCCC1)c1ccccc1,inactive,
Cc1cc(NC(=O)CN2C(=O)NC(CCc3ccccc3)C2=O)no1 (stereo not drawn),"inconclusive: 29.1 µM [activator, single point]",

Structure (SMILES),Potency,re-replication activation
O=C(CCCc1nc(-c2ccc(Cl)cc2)no1)NCC1CCCO1 (stereo not drawn),inactive,
C=CCN(CC=C)CC(=O)Nn1c(C)ccc1C,inactive,
O=C1C2C3C=CC(C4CC34)C2C(=O)N1/N=C/c1ccc([N+](=O)[O-])o1 (stereo not drawn),active: 10.3 µM,
CCCN(S(=O)(=O)c1ccccc1F)S(=O)(=O)c1ccccc1Br,"inconclusive: 20.6 µM [activator, single point]",
Cc1cc(/C=C2\NC(=S)NC2=O)c(C)n1-c1cccnc1,"inconclusive: 29.1 µM [activator, single point]",
COc1cc(/C=N/N(C)C)cc(Br)c1O,"inconclusive: 16.4 µM [activator, single point]",
COc1ccccc1NC(=S)NCCc1ccc(Cl)cc1,"inconclusive: 29.1 µM [activator, single point]",
Fc1ccc(C2CC(c3cccs3)=NN2c2ccccc2)cc1 (stereo not drawn),"inconclusive: 1.16 µM [activator, full curve, poor fit]",
O=C(Nc1ccccc1)Nc1ccc2c(c1)CCC2,"inconclusive: 4.11 µM [activator, partial curve, poor fit]",
COc1cccc(CNC(=O)CN(C)S(=O)(=O)c2ccc3c(c2)n(C)c(=O)c(=O)n3C)c1,inactive,
CC(=O)Nc1ccc(NC(=O)CSC2=NS(=O)(=O)c3cc(F)ccc3N2)cc1,"inconclusive: 2.31 µM [activator, full curve, poor fit]",
COc1ccc2cc(C(=O)N/N=C/c3sc4ccccc4c3O)ccc2c1,"inconclusive: 29.1 µM [activator, single point]",
CCN(CC)CCC(C)OC(c1ccccc1)c1ccccc1 (stereo not drawn),"inconclusive: 16.4 µM [activator, single point]",
Cc1cccc(C)c1OCC(O)CN1CCC(CN2C(=O)c3cccc4cccc(c34)C2=O)CC1 (stereo not drawn),"inconclusive: 25.9 µM [activator, single point]",
CC12CCC(C(=O)N/N=C/c3ccc(O)cc3O)(OC1=O)C2(C)C (stereo not drawn),active: 4.61 µM,
COc1cc(/C=C2/C(=N)N3C(=NC2=O)SN=C3S(=O)(=O)C(C)C)ccc1OC(=O)c1ccco1,"inconclusive: 18.4 µM [activator, single point]",
CSCC[C@H](NC(=O)c1cccc(S(=O)(=O)N2CCN(C)CC2)c1)c1nc2ccccc2[nH]1,"inconclusive: 18.4 µM [activator, single point]",
Cc1cc(NC(=O)COc2ccc3ccccc3c2)no1,inactive,
CC(C)(C)CC(C)(C)c1ccc(O)c(CN2CCN(CCC#N)CC2)c1,"inconclusive: 18.4 µM [activator, single point]",
COc1ccc2c(c1)cc1c(=O)n(CC(=O)NCCCN3CCOCC3)nc(C)n12,,inconclusive: -9.19% [activator]
COc1ccc(OC)c(C(Nc2ccccc2)P(=O)(OC(C)C)OC(C)C)c1 (stereo not drawn),inactive,
Fc1cccc2sc(Nc3nnc(-c4ccco4)o3)nc12,"inconclusive: 20.6 µM [activator, single point]",
O=[N+]([O-])c1ccc(-n2cnc3ccccc32)c([N+](=O)[O-])c1,"inconclusive: 29.1 µM [activator, single point]",

# 2 consecutive entries from above:
Structure (SMILES),Potency,re-replication activation
COc1ccc2c(c1)cc1c(=O)n(CC(=O)NCCCN3CCOCC3)nc(C)n12,,inconclusive: -9.19% [activator]
COc1ccc(OC)c(C(Nc2ccccc2)P(=O)(OC(C)C)OC(C)C)c1 (stereo not drawn),inactive,

# Reformatted as tab-separated lines: three of the compounds above
Structure (SMILES)	Potency	re-replication activation
C=CCN(CC=C)CC(=O)Nn1c(C)ccc1C	inactive	
O=C1C2C3C=CC(C4CC34)C2C(=O)N1/N=C/c1ccc([N+](=O)[O-])o1 (stereo not drawn)	active: 10.3 µM	
CCCN(S(=O)(=O)c1ccccc1F)S(=O)(=O)c1ccccc1Br	inconclusive: 20.6 µM [activator, single point]	

# Further entries:

Structure (SMILES),Potency,re-replication activation
O=C(CNC(=O)c1ccccc1Br)N/N=C/c1ccccc1O,"inconclusive: 5.8 µM [activator, full curve]",
COc1cccc(/C=C/C(=O)Nc2ccc3nc4n(c(=O)c3c2)CCCC4)c1OC,"inconclusive: 5.8 µM [activator, partial curve, poor fit]",
O=c1c2c(-c3ccccc3)csc2nc2c3ccccc3c(NCCN3CCOCC3)nn12,"inconclusive: 2.91 µM [activator, full curve, poor fit]",
Cc1cccc(N2CCN(C(=O)C(Cc3ccccc3)n3cccc3)CC2)c1C (stereo not drawn),"inconclusive: 29.1 µM [activator, single point]",
COC(C/C=C/[C@@H](O)COCc1ccccc1)OC,inactive,
COC(=O)c1c(NC(=O)C(=O)NCCCN2CCOCC2)sc2c1CCC2,"inconclusive: 0.82 µM [activator, full curve, poor fit]",
COC(=O)c1cc(=O)n(Cc2ccc(OC)c(OC)c2)c(=Nc2ccc(F)cc2)s1,inactive,
CN(C)S(=O)(=O)c1ccc(NC(=O)COC(=O)C2COc3ccccc3O2)cc1 (stereo not drawn),"inconclusive: 18.4 µM [activator, single point]",
CCC(CC)N=C1NS(=O)(=O)c2cc([N+](=O)[O-])ccc21,"inconclusive: 29.1 µM [activator, single point]",
CCCCn1c(/N=C/c2c[nH]c3ccccc23)nc2ccccc21,active: 18.4 µM,
Cc1[nH]n2c(=O)c3c(nc2c1-c1ccc(Cl)cc1)CCC3,inactive,
COc1ccc(C2C(=O)N(C3CCCCC3)CC(=O)N2C2CCCC2)cc1 (stereo not drawn),inactive,
COCCNc1oc(/C=C/c2ccc(F)cc2)nc1S(=O)(=O)c1ccccc1,"inconclusive: 20.6 µM [activator, single point]",
CC(=O)N(CC(O)CN(C(C)=O)c1c(I)c(C(=O)NC[C@@H](O)CO)c(I)c(C(=O)NC[C@@H](O)CO)c1I)c1c(I)c(C(=O)NC[C@@H](O)CO)c(I)c(C(=O)NC[C@@H](O)CO)c1I,inactive,
C=CCn1c(SCC(=O)c2[nH]c(C)c(C(=O)OCC)c2C)nc2scc(-c3ccc(OC)cc3)c2c1=O,"inconclusive: 4.11 µM [activator, single point]",
O=C(N/N=C/c1ccccn1)C12CC3CC(CC(C3)C1)C2,"inconclusive: 20.6 µM [activator, single point]",
COc1ccc(/C=N/N=C/c2ccc(OC)c(OC)c2)cc1OC,inactive,
Cc1cc(C(=O)NCCC2=CCCCC2)c(C)o1,"inconclusive: 29.1 µM [activator, single point]",
CC(C)CNC(=O)/C(C#N)=C1\N=C(NC(=O)c2ccco2)c2ccccc21,"inconclusive: 2.91 µM [activator, single point]",
Cc1ccccc1OCCC(=O)N(CC(=O)Nc1ccccc1C(F)(F)F)Cc1ccco1,"inconclusive: 25.9 µM [activator, partial curve, poor fit]",
Clc1cccc(N2CCN(CCNc3nc4ccccc4n4cnnc34)CC2)c1,inactive,
COc1ccccc1CN(C)C(=O)C(c1ccccc1)c1ccccc1,"inconclusive: 29.1 µM [activator, single point]",
